The supplement of paper PMC4604168 (melanoma cell lines)
Some of the results follow. Many values rest on one well or one pass, so single values are uncertain.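 Cells were imaged in 1,536-well plates, and nuclei stained with an antibody against cleaved PARP were counted against all DNA-stained nuclei to give the apoptosis fraction. Screening doses were chosen to leave most cells alive, and resting and induced cleaved-PARP levels differ strongly between cell lines.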

Columns and labels:
Experiment in all cases: cleaved PARP positive nuclei fraction relative to DMSO control; melanoma cells; higher = more apoptosis
Conditions in all cases: library dose: low library concentration; 72 h
[1] = system: COLO792
[2] = system: COLO800
[3] = system: COLO829
[4] = system: G361
[5] = system: IPC-298
[6] = system: IST-MEL1
[7] = system: LB2518-MEL
[8] = system: LOXIMVI

Row | Structure (SMILES) | cleaved PARP positive nuclei fraction [1] [%] | cleaved PARP positive nuclei fraction [2] [%] | cleaved PARP positive nuclei fraction [3] [%] | cleaved PARP positive nuclei fraction [4] [%] | cleaved PARP positive nuclei fraction [5] [%] | cleaved PARP positive nuclei fraction [6] [%] | cleaved PARP positive nuclei fraction [7] [%] | cleaved PARP positive nuclei fraction [8] [%]
1 | C[C@]1(O)C[C@@H](c2nc(-c3ccc4ccc(-c5ccccc5)nc4c3)c3c(N)nccn32)C1 + COC(=O)c1sccc1S(=O)(=O)Nc1ccc(Nc2ccccc2)cc1OC [GSK0660] (first compound 0.4 µM, partner dose 1 µM) | 171 | 80.2 | 143 | 41.5 | 96.6 | 85.6 | 67.8 | 70.9
2 | COc1ccc(C2=N[C@@H](c3ccc(Cl)cc3)[C@@H](c3ccc(Cl)cc3)N2C(=O)N2CCNC(=O)C2)c(OC(C)C)c1 [Nutlin-3] + COc1ccc(COc2ccc(Cc3cnc(N)nc3N)cc2OC)cc1 [GW2580] (first compound 0.1 µM, partner dose 1 µM) | 193 | 70.8 | 211 | 55.6 | 92.9 | 50.6 | 182 | 69.9
3 | C[C@@H](N)c1ccc(C(=O)Nc2ccnc3[nH]ccc23)cc1 + O=C(Nc1ccccc1)c1cc([N+](=O)[O-])ccc1Cl [GW9662] (first compound 0.4 µM, partner dose 2 µM) | 134 | 43 | 110 | 343 | 40.7 | 95.4 | 53.2 | 78.6
4 | CC1(C)CCC(c2ccc(Cl)cc2)=C(CN2CCN(c3ccc(C(=O)NS(=O)(=O)c4ccc(N[C@H](CCN5CCOCC5)CSc5ccccc5)c(S(=O)(=O)C(F)(F)F)c4)cc3)CC2)C1 + COc1ccc(-c2ccc3c(N4CCOCC4)nc(N4C[C@@H](C)O[C@@H](C)C4)nc3n2)cc1CO [KU0063794] (first compound 0.4 µM, partner dose 0.02 µM) | 293 | 331 | 123 | 214 | 151 | 85.4 | 177 | 91.5
5 | C[C@@H](N)c1ccc(C(=O)Nc2ccnc3[nH]ccc23)cc1 + COc1cc(N2CCC(N3CCN(C)CC3)CC2)ccc1Nc1ncc(Cl)c(Nc2ccccc2S(=O)(=O)C(C)C)n1 [NVP-TAE684] (first compound 0.4 µM, partner dose 0.08 µM) | 90.8 | 165 | 198 | 103 | 174 | 86.9 | 91.2 | 90.2
6 | CCCCCCCCc1ccc(CCC(N)(CO)CO)cc1 [fingolimod] + O=S(=O)(c1ccccc1)N(CC(F)(F)F)c1ccc(C(O)(C(F)(F)F)C(F)(F)F)cc1 [T0901317] (first compound 2 µM, partner dose 1.4 µM) | 116 | 38.9 | 96.3 | 135 | 65 | 36.9 | 59.8 | 86.9
7 | CS(=O)(=O)c1ccc(C(=O)Nc2ccc(Cl)c(-c3ccccn3)c2)c(Cl)c1 [vismodegib] + Cc1cc([N+](=O)[O-])ccc1NS(=O)(=O)c1cc(Cl)ccc1Cl [FH535] (first compound 1 µM, partner dose 1 µM) | 105 | 171 | 79.2 | 110 | 51.2 | 156 | 71.1 | 106
8 | NC1(c2ccc(-c3nc4ccn5c(=O)[nH]nc5c4cc3-c3ccccc3)cc2)CCC1 + COc1cc2ncnc(Nc3ccc(Oc4ccccc4)cc3)c2cc1OC [SrcI1] (first compound 0.4 µM, partner dose 2 µM) | 84.6 | 65.7 | 65.4 | 131 | 95.1 | 206 | 21.7 | 94.3
9 | C[C@]1(O)C[C@@H](c2nc(-c3ccc4ccc(-c5ccccc5)nc4c3)c3c(N)nccn32)C1 + CCCCCCCCCCCC1=C(O)C(=O)C=C(O)C1=O [Embelin] (first compound 0.4 µM, partner dose 1.2 µM) | 143 | 134 | 133 | 100 | 104 | 108 | 278 | 165
10 | NC(=O)c1ccc(N(C(N)=O)c2c(F)cccc2F)nc1-c1ccc(F)cc1F + O=C(Nc1ccccc1)c1cc([N+](=O)[O-])ccc1Cl [GW9662] (first compound 0.4 µM, partner dose 2 µM) | 118 | 213 | 88.3 | 154 | 186 | 189 | 94 | 83
11 | Cn1sc(=O)n(Cc2ccccc2)c1=O + Cn1cc(/C=C2\C(=O)Nc3cccnc32)c2ccccc21 [GW441756] (first compound 0.4 µM, partner dose 0.4 µM) | 70 | 131 | 57.2 | 87.1 | 42.5 | 66.4 | 63.6 | 86.9
12 | NC1(c2ccc(-c3nc4ccn5c(=O)[nH]nc5c4cc3-c3ccccc3)cc2)CCC1 + CCc1ccc(CCOc2ccc(CC3SC(=O)NC3=O)cc2)nc1 [pioglitazone] (first compound 0.4 µM, partner dose 2 µM) | 191 | 234 | 118 | 168 | 80.2 | 39.2 | 175 | 19.7
13 | CC(=O)O[C@@]12CO[C@@H]1C[C@H](O)[C@@]1(C)C(=O)[C@H](O)C3=C(C)[C@@H](OC(=O)[C@H](O)[C@@H](NC(=O)OC(C)(C)C)c4ccccc4)C[C@@](O)([C@@H](OC(=O)c4ccccc4)[C@H]21)C3(C)C [Docetaxel] + COc1ccc(COc2ccc(Cc3cnc(N)nc3N)cc2OC)cc1 [GW2580] (first compound 0.0001 µM, partner dose 1 µM) | 827 | 426 | 659 | 545 | 349 | 201 | 419 | 474
14 | Cn1cnc2c(F)c(Nc3ccc(Br)cc3Cl)c(C(=O)NOCCO)cc21 [selumetinib] + CCCCCCCCCCCC1=C(O)C(=O)C=C(O)C1=O [Embelin] (first compound 0.015 µM, partner dose 1.2 µM) | 68.4 | 110 | 68.5 | 113 | 202 | 96.9 | 123 | 77.2
15 | CCCCCCCCc1ccc(CCC(N)(CO)CO)cc1 [fingolimod] + Oc1nc(-c2ccc(C(F)(F)F)cc2)nc2c1CSCC2 [XAV939] (first compound 2 µM, partner dose 2 µM) | 91.3 | 225 | 251 | 39.9 | 61.1 | 48 | 38 | 101
16 | NC(=O)c1ccc(N(C(N)=O)c2c(F)cccc2F)nc1-c1ccc(F)cc1F + COc1ccc2c(c1)CCC1C2CCC2(C)C(NCCCCCCN3C(=O)C=CC3=O)CCC12 [U73122] (first compound 0.4 µM, partner dose 0.4 µM) | 775 | 78 | 203 | 102 | 198 | 125 | 73.8 | 52
17 | COc1ccc(C2=N[C@@H](c3ccc(Cl)cc3)[C@@H](c3ccc(Cl)cc3)N2C(=O)N2CCNC(=O)C2)c(OC(C)C)c1 [Nutlin-3] + CCc1ccc(CCOc2ccc(CC3SC(=O)NC3=O)cc2)nc1 [pioglitazone] (first compound 0.1 µM, partner dose 2 µM) | 30.7 | 154 | 67.4 | 54.1 | 93.1 | 174 | 139 | 103

Two successive entries out of the list so far, quoted:
Row | Structure (SMILES) | cleaved PARP positive nuclei fraction [1] [%] | cleaved PARP positive nuclei fraction [2] [%] | cleaved PARP positive nuclei fraction [3] [%] | cleaved PARP positive nuclei fraction [4] [%] | cleaved PARP positive nuclei fraction [5] [%] | cleaved PARP positive nuclei fraction [6] [%] | cleaved PARP positive nuclei fraction [7] [%] | cleaved PARP positive nuclei fraction [8] [%]
4 | CC1(C)CCC(c2ccc(Cl)cc2)=C(CN2CCN(c3ccc(C(=O)NS(=O)(=O)c4ccc(N[C@H](CCN5CCOCC5)CSc5ccccc5)c(S(=O)(=O)C(F)(F)F)c4)cc3)CC2)C1 + COc1ccc(-c2ccc3c(N4CCOCC4)nc(N4C[C@@H](C)O[C@@H](C)C4)nc3n2)cc1CO [KU0063794] (first compound 0.4 µM, partner dose 0.02 µM) | 293 | 331 | 123 | 214 | 151 | 85.4 | 177 | 91.5
5 | C[C@@H](N)c1ccc(C(=O)Nc2ccnc3[nH]ccc23)cc1 + COc1cc(N2CCC(N3CCN(C)CC3)CC2)ccc1Nc1ncc(Cl)c(Nc2ccccc2S(=O)(=O)C(C)C)n1 [NVP-TAE684] (first compound 0.4 µM, partner dose 0.08 µM) | 90.8 | 165 | 198 | 103 | 174 | 86.9 | 91.2 | 90.2
